The list shows a part of the results.

The chains behind the UniProt entries cited, without tags or fusion partners. Where a name states a change or a piece, a line headed by the entry shows the natural chain unless it says otherwise.
UniProt Q9NY15: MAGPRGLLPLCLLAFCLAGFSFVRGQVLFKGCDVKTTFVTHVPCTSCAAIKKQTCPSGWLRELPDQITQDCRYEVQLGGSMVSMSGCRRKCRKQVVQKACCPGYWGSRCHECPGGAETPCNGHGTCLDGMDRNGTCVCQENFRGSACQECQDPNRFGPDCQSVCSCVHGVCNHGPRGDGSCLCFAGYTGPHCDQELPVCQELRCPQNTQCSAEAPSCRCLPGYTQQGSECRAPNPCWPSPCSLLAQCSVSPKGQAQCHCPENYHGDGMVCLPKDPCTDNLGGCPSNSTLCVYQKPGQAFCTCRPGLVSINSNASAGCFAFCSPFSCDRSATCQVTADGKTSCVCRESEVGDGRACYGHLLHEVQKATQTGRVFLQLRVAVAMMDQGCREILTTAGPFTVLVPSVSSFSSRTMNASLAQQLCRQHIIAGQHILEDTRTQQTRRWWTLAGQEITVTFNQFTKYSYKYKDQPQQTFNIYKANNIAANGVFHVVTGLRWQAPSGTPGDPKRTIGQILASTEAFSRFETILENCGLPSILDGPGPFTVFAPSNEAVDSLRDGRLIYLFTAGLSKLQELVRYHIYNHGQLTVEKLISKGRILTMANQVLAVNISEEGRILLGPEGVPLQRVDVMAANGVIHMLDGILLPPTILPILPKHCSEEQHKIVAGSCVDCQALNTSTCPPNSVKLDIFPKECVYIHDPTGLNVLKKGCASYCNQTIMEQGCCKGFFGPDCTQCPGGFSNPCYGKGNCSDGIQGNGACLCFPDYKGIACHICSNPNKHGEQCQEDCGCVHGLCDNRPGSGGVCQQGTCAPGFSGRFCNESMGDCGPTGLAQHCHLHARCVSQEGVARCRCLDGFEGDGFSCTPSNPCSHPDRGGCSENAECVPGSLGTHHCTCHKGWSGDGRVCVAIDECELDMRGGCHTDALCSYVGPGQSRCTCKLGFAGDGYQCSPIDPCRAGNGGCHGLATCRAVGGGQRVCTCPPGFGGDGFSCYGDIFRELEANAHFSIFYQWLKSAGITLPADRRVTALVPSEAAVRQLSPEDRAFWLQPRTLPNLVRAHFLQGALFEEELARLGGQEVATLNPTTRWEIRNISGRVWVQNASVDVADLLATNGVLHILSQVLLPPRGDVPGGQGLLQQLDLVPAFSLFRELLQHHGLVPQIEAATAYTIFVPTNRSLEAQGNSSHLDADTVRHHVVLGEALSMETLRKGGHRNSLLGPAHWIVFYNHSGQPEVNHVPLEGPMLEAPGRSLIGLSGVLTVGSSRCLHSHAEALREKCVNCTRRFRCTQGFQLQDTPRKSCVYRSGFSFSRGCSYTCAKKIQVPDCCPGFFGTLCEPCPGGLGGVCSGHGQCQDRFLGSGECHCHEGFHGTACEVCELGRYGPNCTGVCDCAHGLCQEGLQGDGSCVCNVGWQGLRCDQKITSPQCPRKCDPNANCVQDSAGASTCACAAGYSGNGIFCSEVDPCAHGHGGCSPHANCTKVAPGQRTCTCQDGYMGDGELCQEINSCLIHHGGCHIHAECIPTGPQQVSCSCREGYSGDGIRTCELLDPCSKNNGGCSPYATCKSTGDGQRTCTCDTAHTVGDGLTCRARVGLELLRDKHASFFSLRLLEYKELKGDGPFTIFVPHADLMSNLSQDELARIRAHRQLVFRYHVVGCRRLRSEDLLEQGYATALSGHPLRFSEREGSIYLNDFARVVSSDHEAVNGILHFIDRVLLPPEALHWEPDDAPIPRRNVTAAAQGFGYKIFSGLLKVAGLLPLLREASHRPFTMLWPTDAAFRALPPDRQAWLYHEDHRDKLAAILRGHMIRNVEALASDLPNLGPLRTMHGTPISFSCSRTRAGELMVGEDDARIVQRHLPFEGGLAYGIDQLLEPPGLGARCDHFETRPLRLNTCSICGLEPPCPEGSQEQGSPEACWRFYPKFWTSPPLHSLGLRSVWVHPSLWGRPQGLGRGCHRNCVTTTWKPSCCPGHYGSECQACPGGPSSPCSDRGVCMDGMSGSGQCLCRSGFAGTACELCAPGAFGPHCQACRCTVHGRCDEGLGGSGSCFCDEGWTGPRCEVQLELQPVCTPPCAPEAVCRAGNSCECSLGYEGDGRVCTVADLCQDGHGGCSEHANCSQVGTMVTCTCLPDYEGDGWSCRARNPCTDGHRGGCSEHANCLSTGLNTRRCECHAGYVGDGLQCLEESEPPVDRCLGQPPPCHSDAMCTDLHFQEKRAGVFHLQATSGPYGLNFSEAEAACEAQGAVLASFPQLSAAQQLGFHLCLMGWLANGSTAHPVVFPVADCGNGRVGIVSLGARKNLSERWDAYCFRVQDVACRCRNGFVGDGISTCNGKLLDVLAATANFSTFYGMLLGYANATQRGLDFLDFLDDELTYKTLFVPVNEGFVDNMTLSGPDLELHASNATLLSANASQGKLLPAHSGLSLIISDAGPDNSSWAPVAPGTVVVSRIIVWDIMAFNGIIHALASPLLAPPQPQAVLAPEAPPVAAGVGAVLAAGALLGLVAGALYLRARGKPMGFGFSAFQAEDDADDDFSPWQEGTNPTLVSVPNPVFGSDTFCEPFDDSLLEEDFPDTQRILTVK
UniProt P40763, whole entry, looked up: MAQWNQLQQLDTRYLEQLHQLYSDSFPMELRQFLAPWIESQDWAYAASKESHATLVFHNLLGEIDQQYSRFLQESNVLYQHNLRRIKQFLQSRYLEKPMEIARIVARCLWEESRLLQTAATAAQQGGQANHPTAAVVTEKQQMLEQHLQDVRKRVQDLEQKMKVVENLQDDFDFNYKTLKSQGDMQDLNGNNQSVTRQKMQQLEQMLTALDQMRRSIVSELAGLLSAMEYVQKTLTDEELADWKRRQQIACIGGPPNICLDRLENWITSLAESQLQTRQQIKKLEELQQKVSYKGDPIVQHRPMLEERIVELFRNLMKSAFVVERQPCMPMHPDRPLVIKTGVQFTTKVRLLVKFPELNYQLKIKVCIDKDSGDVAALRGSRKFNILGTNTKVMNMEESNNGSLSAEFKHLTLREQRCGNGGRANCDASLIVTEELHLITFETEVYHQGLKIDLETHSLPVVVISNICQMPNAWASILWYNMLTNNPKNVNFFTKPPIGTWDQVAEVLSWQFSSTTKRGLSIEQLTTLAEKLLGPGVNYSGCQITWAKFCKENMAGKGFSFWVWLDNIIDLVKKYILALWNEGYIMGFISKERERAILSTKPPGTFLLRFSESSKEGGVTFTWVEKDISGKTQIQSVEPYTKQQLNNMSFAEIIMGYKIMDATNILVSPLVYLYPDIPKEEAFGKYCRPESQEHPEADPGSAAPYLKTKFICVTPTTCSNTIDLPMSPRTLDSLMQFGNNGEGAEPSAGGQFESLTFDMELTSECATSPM
UniProt Q9NP77: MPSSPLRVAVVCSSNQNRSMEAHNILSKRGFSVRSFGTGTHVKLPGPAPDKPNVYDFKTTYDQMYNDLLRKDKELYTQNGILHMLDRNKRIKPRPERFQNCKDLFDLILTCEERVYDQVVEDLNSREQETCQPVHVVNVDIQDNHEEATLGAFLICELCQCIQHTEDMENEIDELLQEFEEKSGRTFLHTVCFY
UniProt P42224: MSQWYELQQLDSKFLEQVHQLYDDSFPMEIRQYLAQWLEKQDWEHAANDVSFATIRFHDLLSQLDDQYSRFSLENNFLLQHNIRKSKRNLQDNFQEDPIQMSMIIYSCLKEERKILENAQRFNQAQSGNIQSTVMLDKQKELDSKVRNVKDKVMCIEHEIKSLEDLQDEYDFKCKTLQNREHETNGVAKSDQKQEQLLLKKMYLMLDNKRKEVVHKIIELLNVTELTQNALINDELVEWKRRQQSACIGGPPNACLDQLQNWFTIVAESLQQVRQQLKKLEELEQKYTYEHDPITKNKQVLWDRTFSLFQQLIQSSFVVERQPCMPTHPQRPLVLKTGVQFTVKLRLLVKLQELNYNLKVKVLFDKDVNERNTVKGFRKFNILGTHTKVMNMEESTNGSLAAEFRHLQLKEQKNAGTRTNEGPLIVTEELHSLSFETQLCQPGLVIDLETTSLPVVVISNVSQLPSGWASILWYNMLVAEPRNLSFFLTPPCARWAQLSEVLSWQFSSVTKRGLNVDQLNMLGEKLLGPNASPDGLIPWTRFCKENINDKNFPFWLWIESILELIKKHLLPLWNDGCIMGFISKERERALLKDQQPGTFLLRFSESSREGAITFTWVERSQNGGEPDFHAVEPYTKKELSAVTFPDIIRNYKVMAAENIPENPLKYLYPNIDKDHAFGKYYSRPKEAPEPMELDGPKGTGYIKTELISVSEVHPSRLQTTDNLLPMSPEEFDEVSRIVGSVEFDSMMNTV
UniProt P61647: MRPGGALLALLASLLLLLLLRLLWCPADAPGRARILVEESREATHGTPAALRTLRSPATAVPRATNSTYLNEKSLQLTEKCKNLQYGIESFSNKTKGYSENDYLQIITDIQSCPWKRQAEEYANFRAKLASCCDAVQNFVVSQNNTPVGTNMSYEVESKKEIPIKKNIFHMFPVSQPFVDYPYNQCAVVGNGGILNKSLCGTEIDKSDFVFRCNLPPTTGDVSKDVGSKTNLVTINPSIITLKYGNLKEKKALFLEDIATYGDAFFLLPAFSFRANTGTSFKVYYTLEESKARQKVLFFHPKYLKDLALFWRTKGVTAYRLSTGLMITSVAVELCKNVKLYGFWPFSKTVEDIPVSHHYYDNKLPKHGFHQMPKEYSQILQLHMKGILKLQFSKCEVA
UniProt Q14849, whole entry, looked up: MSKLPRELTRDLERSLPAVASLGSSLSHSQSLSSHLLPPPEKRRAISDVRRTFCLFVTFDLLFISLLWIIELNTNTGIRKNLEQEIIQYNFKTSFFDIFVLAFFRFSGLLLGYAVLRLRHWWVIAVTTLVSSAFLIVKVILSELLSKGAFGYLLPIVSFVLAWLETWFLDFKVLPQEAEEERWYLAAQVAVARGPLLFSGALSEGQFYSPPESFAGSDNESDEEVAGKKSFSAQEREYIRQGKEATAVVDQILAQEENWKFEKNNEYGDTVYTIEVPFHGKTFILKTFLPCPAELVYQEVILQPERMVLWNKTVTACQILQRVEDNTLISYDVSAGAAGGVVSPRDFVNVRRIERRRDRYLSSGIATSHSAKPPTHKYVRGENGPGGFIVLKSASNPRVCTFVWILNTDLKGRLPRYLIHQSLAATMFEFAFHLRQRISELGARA
UniProt O43278: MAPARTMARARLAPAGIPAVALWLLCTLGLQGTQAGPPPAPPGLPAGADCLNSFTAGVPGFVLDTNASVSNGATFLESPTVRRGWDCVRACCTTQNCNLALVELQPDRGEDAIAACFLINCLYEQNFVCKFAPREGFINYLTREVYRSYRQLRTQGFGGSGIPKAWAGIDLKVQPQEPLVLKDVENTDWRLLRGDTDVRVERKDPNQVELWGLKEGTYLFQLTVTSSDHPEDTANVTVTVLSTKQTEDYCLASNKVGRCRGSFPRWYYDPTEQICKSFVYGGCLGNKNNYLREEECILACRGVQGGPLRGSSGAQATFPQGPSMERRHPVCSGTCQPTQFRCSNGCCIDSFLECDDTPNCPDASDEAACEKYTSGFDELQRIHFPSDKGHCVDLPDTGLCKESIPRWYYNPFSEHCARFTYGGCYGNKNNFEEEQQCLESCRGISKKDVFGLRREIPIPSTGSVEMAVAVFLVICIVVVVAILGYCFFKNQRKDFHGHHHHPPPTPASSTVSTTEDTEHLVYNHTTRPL
UniProt Q8N9Q2: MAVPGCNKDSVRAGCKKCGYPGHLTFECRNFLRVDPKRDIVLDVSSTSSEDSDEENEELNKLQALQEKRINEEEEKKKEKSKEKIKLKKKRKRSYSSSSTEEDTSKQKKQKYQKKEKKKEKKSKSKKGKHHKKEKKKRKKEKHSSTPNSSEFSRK
UniProt Q8NEF9: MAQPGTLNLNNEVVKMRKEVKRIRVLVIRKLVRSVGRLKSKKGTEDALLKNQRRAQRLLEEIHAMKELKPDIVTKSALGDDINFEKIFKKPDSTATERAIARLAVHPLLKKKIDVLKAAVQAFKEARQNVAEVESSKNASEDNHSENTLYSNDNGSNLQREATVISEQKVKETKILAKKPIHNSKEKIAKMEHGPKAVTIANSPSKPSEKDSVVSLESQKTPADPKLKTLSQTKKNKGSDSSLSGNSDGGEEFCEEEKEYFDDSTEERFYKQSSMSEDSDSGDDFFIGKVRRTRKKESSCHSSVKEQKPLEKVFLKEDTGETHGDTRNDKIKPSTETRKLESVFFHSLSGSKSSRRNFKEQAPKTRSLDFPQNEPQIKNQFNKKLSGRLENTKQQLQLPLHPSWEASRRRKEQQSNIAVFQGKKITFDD
UniProt Q11201: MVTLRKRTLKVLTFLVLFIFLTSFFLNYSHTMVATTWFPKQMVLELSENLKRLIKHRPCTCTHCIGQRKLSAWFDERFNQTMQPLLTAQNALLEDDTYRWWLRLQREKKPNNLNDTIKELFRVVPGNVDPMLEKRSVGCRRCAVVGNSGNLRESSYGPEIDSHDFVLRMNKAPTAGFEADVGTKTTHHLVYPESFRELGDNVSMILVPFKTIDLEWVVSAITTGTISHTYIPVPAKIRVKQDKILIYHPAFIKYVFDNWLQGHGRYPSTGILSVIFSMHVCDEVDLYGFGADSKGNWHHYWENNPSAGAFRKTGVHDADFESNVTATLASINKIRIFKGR

Compound in one test: CC1=C2C(=CC=C1)N=C(N(C2=O)C3=CC=CC=C3C)CN4C=NC5=C(N=CN=C54)N
The experiment in a line: log2 fold change, soluble protein after heating vs DMSO (PISA); higher = thermal stabilisation; K562 cells, 10 uM, 30 min; active = over 0.2 and 3.5 SD of the protein, either way, in both replicates (recomputed). The gist of the method: (§1)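 Thermal stability values are relative to control samples and come from duplicates. They are expressed as log2 fold changes. For measurement, K562 cells (2×10^6 cells/mL) received 10 μM compound for 30 min, and aliquots were heated for 3 min over 48°C-58°C, pooled, and extracted at 4°C in PBS with 0.5% NP-40. Soluble protein, the supernatant after 21,000xg for 90 min, was quantified by TMTpro 16plex LC-MS/MS with equalised channel sums.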
Regarding SRSF9 (UniProt Q13242), the log2 fold change was inactive: -0.38.

Consider SRCIN1 (UniProt Q9C0H9), for which the log2 fold change was inactive: 0.076.

With STC2 (UniProt O76061), the log2 fold change is inactive: -0.826.

SSB (UniProt E7ERC4): the log2 fold change was inactive: 0.188.

On to STIM2 isoform 2 (UniProt Q9P246), for which the log2 fold change was inactive: -0.04.

Take SRGAP1 (UniProt Q7Z6B7): the log2 fold change was inactive: 0.072.

For the target SSBP4 (UniProt U3KPY3), the log2 fold change is inactive: 0.

As to STAB1 (UniProt Q9NY15), the log2 fold change was inactive: 0.308.

Consider STAT3 (UniProt P40763), for which the log2 fold change is inactive: 0.1.

For the target SSU72 (UniProt Q9NP77), the log2 fold change is inactive: 0.25.

Turning to STAR (UniProt P49675), the log2 fold change is inactive: 0.223.

For the target SPTAN1 isoform 3 (UniProt Q13813), the log2 fold change is inactive: -0.128.

On to STAT1 (UniProt P42224), for which the log2 fold change is inactive: 0.107.

ST8SIA6 (UniProt P61647): the log2 fold change was inactive: 0.35.

Regarding STARD10 (UniProt Q9Y365), the log2 fold change is inactive: -0.004.

For the target SPRR2B (UniProt P35325), the log2 fold change is inactive: 0.385.

As for STARD3 (UniProt Q14849), the log2 fold change is inactive: 0.14.

Turning to SQOR (UniProt Q9Y6N5), the log2 fold change was inactive: -0.076.

Turning to SPTA1 (UniProt P02549), the log2 fold change is inactive: 0.025.

SPATA31E1 (UniProt Q6ZUB1): the log2 fold change is inactive: 0.497.

Regarding SPATS2 (UniProt Q86XZ4), the log2 fold change is inactive: -0.154.

On to SPRED1 (UniProt Q7Z699), for which the log2 fold change was inactive: -0.221.

Turning to SRR (UniProt Q9GZT4), the log2 fold change is inactive: 0.109.

SPINT1 (UniProt O43278): the log2 fold change was inactive: -0.077.

Turning to SREBF2 (UniProt Q12772), the log2 fold change is inactive: 0.133.

For the target SREK1IP1 (UniProt Q8N9Q2), the log2 fold change is inactive: -0.039.

Compound in another test: Cc1sc2c(c1C)C(c1ccc(Cl)cc1)=N[C@@H](CC(=O)OC(C)(C)C)c1nnc(C)n1-2
The test is described as above. The gist of the method:
as §1
As to STIM2 isoform 2 (UniProt Q9P246), the log2 fold change is inactive: 0.018.

For SRGAP1 (UniProt Q7Z6B7), the log2 fold change is inactive: 0.126.

On to SPIRE2 (UniProt Q8WWL2), for which the log2 fold change was inactive: 0.111.

With STAT3 (UniProt P40763), the log2 fold change was inactive: 0.024.

Turning to SSU72 (UniProt Q9NP77), the log2 fold change is inactive: -0.021.

On to SRFBP1 (UniProt Q8NEF9), for which the log2 fold change is inactive: 0.048.

As for STAT1 (UniProt P42224), the log2 fold change was inactive: 0.202.

With SSBP4 (UniProt Q9BWG4), the log2 fold change is inactive: 0.037.

On to SPDL1 (UniProt Q96EA4), for which the log2 fold change was inactive: 0.101.

With SRRD (UniProt Q9UH36), the log2 fold change was inactive: 0.045.

Consider ST3GAL4 isoform 4 (UniProt Q11206), for which the log2 fold change was inactive: -0.002.

On to STARD3 (UniProt Q14849), for which the log2 fold change was inactive: 0.066.

With SPTA1 (UniProt P02549), the log2 fold change was inactive: 0.115.

With SRR (UniProt Q9GZT4), the log2 fold change is inactive: -0.055.

Turning to SREK1IP1 (UniProt Q8N9Q2), the log2 fold change was inactive: -0.005.

Compound in another test: c1ccc([C@@H]2C[C@H]2NC2CCNCC2)cc1
The test is described as above. The gist of the method: as §1
As to SRSF9 (UniProt Q13242), the log2 fold change is inactive: 0.041.

Regarding SPATS2L isoform 3 (UniProt Q9NUQ6), the log2 fold change is inactive: 0.144.

Consider STAB1 (UniProt Q9NY15), for which the log2 fold change was inactive: 0.128.

Regarding SPRED2 (UniProt Q7Z698), the log2 fold change is inactive: -0.042.

Regarding SPIRE2 (UniProt Q8WWL2), the log2 fold change is inactive: 0.397.

Consider STAT3 (UniProt P40763), for which the log2 fold change is inactive: -0.006.

As to SSU72 (UniProt Q9NP77), the log2 fold change is inactive: -0.063.

In the case of SRFBP1 (UniProt Q8NEF9), the log2 fold change is inactive: -0.013.

For STAT1 (UniProt P42224), the log2 fold change is inactive: 0.004.

Consider SPDL1 (UniProt Q96EA4), for which the log2 fold change was inactive: -0.028.

As for ST3GAL4 isoform 4 (UniProt Q11206), the log2 fold change is inactive: -0.256.

With STARD3 (UniProt Q14849), the log2 fold change was inactive: -0.153.

SPTA1 (UniProt P02549): the log2 fold change is inactive: 0.039.

Consider SPATA31E1 (UniProt Q6ZUB1), for which the log2 fold change was inactive: 0.061.

SPATS2 (UniProt Q86XZ4): the log2 fold change was inactive: 0.112.

As for SPRED1 (UniProt Q7Z699), the log2 fold change was inactive: 0.115.

With SSBP2 (UniProt P81877), the log2 fold change is inactive: 0.207.

With SREK1IP1 (UniProt Q8N9Q2), the log2 fold change was inactive: -0.018.

Turning to ST3GAL1 (UniProt Q11201), the log2 fold change is inactive: -0.377.

As for SSX1 (UniProt Q16384), the log2 fold change was inactive: 0.143.

Values taken from the supplement of paper PMC10849652.
